Some of the results follow.
Key:
Assay in all cases: log2 fold change, soluble protein after heating vs DMSO (PISA); higher = thermal stabilisation; K562 cells, 10 uM, 30 min; active = over 0.2 and 3.5 SD of the protein, either way, in both replicates (recomputed)
[1] = compound: CS(=O)(=O)c1ccc(-c2cnc(N)c(C(=O)Nc3ccccc3)n2)cc1
How it was run: (§1)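 Aliquots of K562 cells (2×10^6 cells/mL) treated with 10 μM compound for 30 min were heated for 3 min over 48°C-58°C. After pooling and extraction in PBS with 0.5% NP-40 at 4°C, soluble protein from a 21,000xg, 90 min spin was quantified by TMTpro 16plex LC-MS/MS with channel sums equalised. Thermal stability is expressed against control samples, from duplicates, as a log2 fold change.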

Chains of the proteins cited; added tags and fusions are not shown. Lines headed by an entry give the natural chain unless they say otherwise; changes in a name come on top.
UniProt Q6UWE0: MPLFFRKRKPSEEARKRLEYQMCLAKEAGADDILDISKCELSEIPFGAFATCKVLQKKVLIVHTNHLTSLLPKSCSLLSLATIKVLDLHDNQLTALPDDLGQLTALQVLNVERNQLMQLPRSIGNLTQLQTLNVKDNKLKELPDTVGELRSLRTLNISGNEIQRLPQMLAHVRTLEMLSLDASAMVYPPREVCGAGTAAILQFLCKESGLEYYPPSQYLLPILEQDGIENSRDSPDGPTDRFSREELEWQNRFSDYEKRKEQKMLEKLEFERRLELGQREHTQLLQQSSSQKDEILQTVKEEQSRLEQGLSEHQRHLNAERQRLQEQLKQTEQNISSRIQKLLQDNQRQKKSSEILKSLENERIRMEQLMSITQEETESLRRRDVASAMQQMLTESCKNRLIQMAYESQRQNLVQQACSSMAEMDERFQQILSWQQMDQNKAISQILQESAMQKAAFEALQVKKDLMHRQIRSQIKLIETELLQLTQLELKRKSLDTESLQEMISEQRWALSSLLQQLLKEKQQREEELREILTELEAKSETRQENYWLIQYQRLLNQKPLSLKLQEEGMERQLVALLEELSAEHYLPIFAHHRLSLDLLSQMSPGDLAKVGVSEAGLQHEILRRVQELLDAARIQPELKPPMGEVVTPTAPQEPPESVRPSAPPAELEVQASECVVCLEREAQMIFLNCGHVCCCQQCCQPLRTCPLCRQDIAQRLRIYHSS
UniProt Q9UK45: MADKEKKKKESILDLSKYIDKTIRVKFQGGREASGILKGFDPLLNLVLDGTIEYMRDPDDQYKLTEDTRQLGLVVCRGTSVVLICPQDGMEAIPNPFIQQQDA
UniProt Q9NU23: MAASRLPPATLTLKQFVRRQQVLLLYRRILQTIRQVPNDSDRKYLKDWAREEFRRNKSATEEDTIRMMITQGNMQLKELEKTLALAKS
UniProt Q5VWZ2: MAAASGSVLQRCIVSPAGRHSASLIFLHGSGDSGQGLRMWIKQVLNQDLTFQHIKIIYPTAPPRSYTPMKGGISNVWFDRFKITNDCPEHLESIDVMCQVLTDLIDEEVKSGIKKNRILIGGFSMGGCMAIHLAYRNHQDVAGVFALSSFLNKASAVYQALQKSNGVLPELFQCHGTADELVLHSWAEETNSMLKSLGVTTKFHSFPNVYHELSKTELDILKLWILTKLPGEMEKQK
UniProt P56192: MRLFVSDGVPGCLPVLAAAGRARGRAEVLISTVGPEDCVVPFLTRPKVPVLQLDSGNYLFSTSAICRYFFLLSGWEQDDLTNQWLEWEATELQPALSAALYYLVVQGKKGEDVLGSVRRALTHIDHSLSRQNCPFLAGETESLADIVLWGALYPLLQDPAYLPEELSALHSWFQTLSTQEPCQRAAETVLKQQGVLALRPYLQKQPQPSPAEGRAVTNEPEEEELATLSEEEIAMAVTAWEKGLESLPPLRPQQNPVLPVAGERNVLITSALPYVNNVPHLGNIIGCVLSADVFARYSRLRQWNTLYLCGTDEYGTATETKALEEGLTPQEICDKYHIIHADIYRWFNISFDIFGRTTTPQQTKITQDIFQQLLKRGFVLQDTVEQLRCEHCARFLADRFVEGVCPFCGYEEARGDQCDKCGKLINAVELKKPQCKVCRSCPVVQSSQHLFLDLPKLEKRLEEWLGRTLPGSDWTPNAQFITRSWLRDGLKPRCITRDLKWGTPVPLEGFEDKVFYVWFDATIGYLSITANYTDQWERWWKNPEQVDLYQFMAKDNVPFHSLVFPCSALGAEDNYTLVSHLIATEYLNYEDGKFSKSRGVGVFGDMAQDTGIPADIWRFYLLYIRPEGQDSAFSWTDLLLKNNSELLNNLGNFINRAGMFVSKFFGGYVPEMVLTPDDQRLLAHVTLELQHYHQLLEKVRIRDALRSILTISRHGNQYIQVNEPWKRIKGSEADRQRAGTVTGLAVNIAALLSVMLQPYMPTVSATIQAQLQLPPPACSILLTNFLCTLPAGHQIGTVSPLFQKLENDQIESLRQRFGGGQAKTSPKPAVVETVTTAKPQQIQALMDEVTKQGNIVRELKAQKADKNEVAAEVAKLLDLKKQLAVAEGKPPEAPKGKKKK
UniProt P55145: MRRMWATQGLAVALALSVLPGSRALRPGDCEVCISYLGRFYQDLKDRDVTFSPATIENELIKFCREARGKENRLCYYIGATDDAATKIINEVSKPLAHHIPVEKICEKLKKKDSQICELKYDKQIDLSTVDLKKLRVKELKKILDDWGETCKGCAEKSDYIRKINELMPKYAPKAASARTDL
UniProt Q9BQ69: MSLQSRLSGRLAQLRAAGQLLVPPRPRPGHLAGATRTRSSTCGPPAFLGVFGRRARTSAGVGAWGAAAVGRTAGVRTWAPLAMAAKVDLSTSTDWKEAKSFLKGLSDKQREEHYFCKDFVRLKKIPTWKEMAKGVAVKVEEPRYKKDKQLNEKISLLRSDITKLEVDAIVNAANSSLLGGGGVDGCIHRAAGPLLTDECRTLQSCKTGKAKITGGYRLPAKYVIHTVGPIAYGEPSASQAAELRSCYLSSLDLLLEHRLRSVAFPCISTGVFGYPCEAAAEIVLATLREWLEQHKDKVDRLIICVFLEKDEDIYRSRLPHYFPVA
UniProt O15479: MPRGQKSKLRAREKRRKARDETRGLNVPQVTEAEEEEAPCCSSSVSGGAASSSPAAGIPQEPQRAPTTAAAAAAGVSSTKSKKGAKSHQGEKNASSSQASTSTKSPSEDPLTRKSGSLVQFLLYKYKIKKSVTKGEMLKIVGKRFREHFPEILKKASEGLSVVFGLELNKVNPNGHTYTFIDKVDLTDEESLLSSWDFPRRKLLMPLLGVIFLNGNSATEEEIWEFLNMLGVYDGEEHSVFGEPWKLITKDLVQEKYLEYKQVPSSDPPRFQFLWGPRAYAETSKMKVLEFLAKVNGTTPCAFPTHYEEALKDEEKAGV
UniProt Q9UNF1: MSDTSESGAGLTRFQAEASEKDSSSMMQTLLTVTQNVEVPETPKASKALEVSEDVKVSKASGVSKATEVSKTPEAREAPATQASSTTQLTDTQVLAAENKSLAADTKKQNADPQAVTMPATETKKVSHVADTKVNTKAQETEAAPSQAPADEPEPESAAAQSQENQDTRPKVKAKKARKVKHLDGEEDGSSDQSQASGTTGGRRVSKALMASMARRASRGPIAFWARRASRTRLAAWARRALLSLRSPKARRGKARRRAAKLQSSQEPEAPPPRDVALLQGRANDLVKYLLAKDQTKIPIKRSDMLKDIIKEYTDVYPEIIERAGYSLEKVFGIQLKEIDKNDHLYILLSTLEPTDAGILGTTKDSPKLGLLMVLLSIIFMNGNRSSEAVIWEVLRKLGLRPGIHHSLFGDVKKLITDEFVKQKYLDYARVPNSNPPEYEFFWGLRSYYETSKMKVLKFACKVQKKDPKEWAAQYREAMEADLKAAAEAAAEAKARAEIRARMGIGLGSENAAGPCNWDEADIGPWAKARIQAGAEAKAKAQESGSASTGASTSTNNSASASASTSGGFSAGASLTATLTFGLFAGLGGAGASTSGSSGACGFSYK
UniProt P27361, whole entry, looked up: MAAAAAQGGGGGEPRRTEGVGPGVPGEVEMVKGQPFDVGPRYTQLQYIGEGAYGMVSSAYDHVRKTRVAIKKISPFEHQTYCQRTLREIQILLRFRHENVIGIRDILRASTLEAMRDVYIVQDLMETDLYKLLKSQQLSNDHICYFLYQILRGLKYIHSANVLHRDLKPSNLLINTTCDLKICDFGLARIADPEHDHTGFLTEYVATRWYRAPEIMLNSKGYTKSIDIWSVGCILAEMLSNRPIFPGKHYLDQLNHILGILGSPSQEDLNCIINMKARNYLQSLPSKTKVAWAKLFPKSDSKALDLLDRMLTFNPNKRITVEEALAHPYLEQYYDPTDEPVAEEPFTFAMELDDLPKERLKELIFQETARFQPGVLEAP
UniProt P43366: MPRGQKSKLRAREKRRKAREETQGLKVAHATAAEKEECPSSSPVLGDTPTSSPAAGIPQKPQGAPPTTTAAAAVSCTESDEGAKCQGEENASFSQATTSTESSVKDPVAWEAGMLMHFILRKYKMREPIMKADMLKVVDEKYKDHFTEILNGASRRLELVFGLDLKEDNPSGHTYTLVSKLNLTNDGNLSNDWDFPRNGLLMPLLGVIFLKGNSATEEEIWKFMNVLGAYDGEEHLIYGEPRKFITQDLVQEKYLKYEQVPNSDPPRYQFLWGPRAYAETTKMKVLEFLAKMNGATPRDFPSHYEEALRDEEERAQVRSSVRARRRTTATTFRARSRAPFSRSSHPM
UniProt Q8IV50: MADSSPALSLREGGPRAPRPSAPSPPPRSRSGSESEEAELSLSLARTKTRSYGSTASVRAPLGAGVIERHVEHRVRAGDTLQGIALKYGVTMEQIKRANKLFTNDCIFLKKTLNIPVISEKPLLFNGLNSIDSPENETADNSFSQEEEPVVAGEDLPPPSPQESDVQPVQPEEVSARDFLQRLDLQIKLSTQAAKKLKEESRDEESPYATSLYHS
UniProt P62310: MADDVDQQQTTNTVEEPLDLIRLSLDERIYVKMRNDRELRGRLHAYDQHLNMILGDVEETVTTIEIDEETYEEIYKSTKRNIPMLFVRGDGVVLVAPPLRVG
UniProt O75608: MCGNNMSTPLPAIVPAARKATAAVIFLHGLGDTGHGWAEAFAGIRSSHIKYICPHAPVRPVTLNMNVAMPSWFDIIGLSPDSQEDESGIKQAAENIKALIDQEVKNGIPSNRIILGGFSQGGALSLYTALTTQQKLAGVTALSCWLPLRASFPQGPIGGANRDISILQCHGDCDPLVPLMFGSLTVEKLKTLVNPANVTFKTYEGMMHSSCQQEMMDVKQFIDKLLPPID

crizotinib = compound: C[C@@H](Oc1cc(-c2cnn(C3CCNCC3)c2)cnc1N)c1c(Cl)ccc(F)c1Cl [crizotinib]
How it was run: as §1

[2] = compound: C[C@@H]1COCCN1C2=NC(=NC(=C2)C3(CC3)S(=O)(=O)C)C4=C5C=CNC5=CC=C4
How it was run: as §1

[3] = compound: C[C@H](C1=CC=C(C=C1)C(=O)NC2=C3C=CNC3=NC=C2)N
How it was run: as §1

duvelisib = compound: C[C@H](Nc1ncnc2nc[nH]c12)c1cc2cccc(Cl)c2c(=O)n1-c1ccccc1 [duvelisib]
How it was run: as §1

gandotinib = compound: Cc1cc(Nc2cc(CN3CCOCC3)c3nc(C)c(Cc4ccc(Cl)cc4F)n3n2)n[nH]1 [gandotinib]
How it was run: as §1

tozasertib = compound: Cc1cc(Nc2cc(N3CCN(C)CC3)nc(Sc3ccc(NC(=O)C4CC4)cc3)n2)n[nH]1 [tozasertib]
How it was run: as §1

[4] = compound: Cc1cc(SCc2sc(-c3ccc(C(F)(F)F)cc3)nc2C)ccc1OCC(=O)O
How it was run: as §1

doramapimod = compound: Cc1ccc(-n2nc(C(C)(C)C)cc2NC(=O)Nc2ccc(OCCN3CCOCC3)c3ccccc23)cc1 [doramapimod]
How it was run: as §1

ispinesib = compound: Cc1ccc(C(=O)N(CCCN)[C@@H](c2nc3cc(Cl)ccc3c(=O)n2Cc2ccccc2)C(C)C)cc1 [ispinesib]
How it was run: as §1

bafetinib = compound: Cc1ccc(NC(=O)c2ccc(CN3CC[C@H](N(C)C)C3)c(C(F)(F)F)c2)cc1Nc1nccc(-c2cncnc2)n1 [bafetinib]
How it was run: as §1

[5] = compound: Cc1cccc(CC(=O)N2CCc3c2ccc(-c2cn(C)c4ncnc(N)c24)c3F)n1
How it was run: as §1

nilotinib = compound: Cc1cn(-c2cc(NC(=O)c3ccc(C)c(Nc4nccc(-c5cccnc5)n4)c3)cc(C(F)(F)F)c2)cn1 [nilotinib]
How it was run: as §1

[6] = compound: Cc1nc(Nc2n[nH]c3c2CN(C(=O)N[C@H](CN(C)C)c2ccccc2)C3(C)C)c2sccc2n1
How it was run: as §1

dasatinib = compound: Cc1nc(Nc2ncc(C(=O)Nc3c(C)cccc3Cl)s2)cc(N2CCN(CCO)CC2)n1 [dasatinib]
How it was run: as §1

[7] = compound: Cc1ncc(-c2ccnc(Nc3ccc(S(C)(=O)=O)cc3)n2)n1C(C)C
How it was run: as §1

[8] = compound: Cn1cc(-c2ccc3c(c2)CCN3C(=O)Cc2cccc(C(F)(F)F)c2)c2c(N)ncnc21
How it was run: as §1

[9] = compound: Cn1cc(-c2ccc3nnc(C(F)(F)c4ccc5ncccc5c4)n3n2)cn1
How it was run: as §1

tipifarnib = compound: Cn1cncc1[C@@](N)(c1ccc(Cl)cc1)c1ccc2c(c1)c(-c1cccc(Cl)c1)cc(=O)n2C [tipifarnib]
How it was run: as §1

mubritinib = compound: FC(F)(F)c1ccc(/C=C/c2nc(COc3ccc(CCCCn4ccnn4)cc3)co2)cc1 [mubritinib]
How it was run: as §1

Measured: log2 fold change

LRSAM1 (UniProt Q6UWE0)
inactive: [1] 0.055 | crizotinib -0.012 | [2] 0.077 | [3] -0.04 | duvelisib 0.023 | gandotinib -0.045 | tozasertib 0 | [4] 0.049 | doramapimod 0.06 | ispinesib -0.017 | bafetinib -0.036 | [5] 0.023 | nilotinib -0.011 | [6] -0.073 | dasatinib -0.026 | [7] 0.029 | [8] 0.055 | [9] -0.028 | tipifarnib -0.001 | mubritinib 0.072

LSM7 (UniProt Q9UK45)
inactive: [1] 0.034 | crizotinib 0.002 | [2] 0.025 | [3] -0.019 | duvelisib 0.088 | gandotinib 0.021 | tozasertib -0.053 | [4] -0.01 | doramapimod 0.024 | ispinesib -0.004 | bafetinib 0.036 | [5] -0.05 | nilotinib -0.041 | [6] 0.025 | dasatinib 0.025 | [7] -0.031 | [8] 0.042 | [9] 0.016 | tipifarnib -0.023 | mubritinib 0.013

LYRM2 (UniProt Q9NU23)
inactive: [1] -0.058 | crizotinib 0.067 | [2] 0.117 | [3] -0.078 | duvelisib 0.041 | gandotinib 0.002 | tozasertib 0 | [4] -0.005 | doramapimod -0.011 | ispinesib 0.077 | bafetinib 0.031 | [5] -0.051 | nilotinib 0.015 | [6] 0.004 | dasatinib -0.02 | [7] -0.013 | [8] 0.058 | [9] 0.016 | tipifarnib -0.078 | mubritinib 0.001

LYPLAL1 (UniProt Q5VWZ2)
inactive: [1] 0.025 | crizotinib -0.015 | [2] 0.083 | [3] -0.037 | duvelisib 0.017 | gandotinib -0.078 | tozasertib 0.031 | [4] 0.019 | doramapimod -0.034 | ispinesib 0.044 | bafetinib 0.001 | [5] 0.027 | nilotinib 0.018 | [6] 0.039 | dasatinib -0.054 | [7] -0.042 | [8] 0.098 | [9] -0.001 | tipifarnib -0.072 | mubritinib 0.04

MARS (UniProt P56192)
inactive: [1] -0.01 | crizotinib -0.101 | [2] -0.039 | [3] 0.092 | duvelisib -0.018 | gandotinib -0.033 | tozasertib -0.036 | [4] 0.032 | doramapimod 0.057 | ispinesib -0.16 | bafetinib -0.007 | [5] 0.038 | nilotinib -0.039 | [6] -0.012 | dasatinib -0.024 | [7] 0.016 | [8] -0.037 | [9] -0.081 | tipifarnib -0.016 | mubritinib -0.008

MANF (UniProt P55145)
inactive: [1] -0.026 | crizotinib 0.084 | [2] 0.027 | [3] -0.077 | duvelisib -0.013 | gandotinib 0.015 | tozasertib -0.025 | [4] -0.03 | doramapimod -0.029 | ispinesib 0.001 | bafetinib -0.035 | [5] -0.042 | nilotinib -0.01 | [6] 0.038 | dasatinib 0.049 | [7] -0.02 | [8] 0.011 | [9] 0.021 | tipifarnib 0.008 | mubritinib -0.005

MACROD1 (UniProt Q9BQ69)
inactive: [1] 0.049 | crizotinib 0.133 | [2] 0.222 | [3] -0.013 | duvelisib -0.005 | gandotinib -0.182 | tozasertib 0.114 | [4] 0.092 | doramapimod -0.001 | ispinesib 0.065 | bafetinib -0.086 | [5] 0.028 | nilotinib -0.046 | [6] -0.102 | dasatinib -0.014 | [7] 0.037 | [8] 0.057 | [9] -0.05 | tipifarnib -0.096 | mubritinib 0.158

MAK16 (UniProt Q9BXY0)
inactive: [1] -0.021 | crizotinib -0.04 | [2] -0.103 | [3] 0.132 | duvelisib 0.021 | gandotinib -0.037 | tozasertib 0.01 | [4] -0.043 | doramapimod 0.151 | ispinesib -0.09 | bafetinib 0.125 | [5] -0.031 | nilotinib 0.02 | [6] 0.107 | dasatinib 0.187 | [7] 0.015 | [8] -0.093 | [9] -0.049 | tipifarnib -0.001 | mubritinib -0.031

MAGEB2 (UniProt O15479)
inactive: [1] -0.101 | crizotinib 0.008 | [2] -0.255 | [3] 0.353 | duvelisib -0.249 | gandotinib 0.103 | tozasertib -0.008 | [4] 0.118 | doramapimod 0.121 | ispinesib -0.239 | bafetinib 0.141 | [5] -0.105 | nilotinib -0.07 | [6] 0.024 | dasatinib 0.114 | [7] -0.021 | [8] 0.015 | [9] -0.127 | tipifarnib 0.172 | mubritinib -0.516

LYAR (UniProt Q9NX58)
inactive: [1] -0.043 | crizotinib 0.045 | [2] -0.551 | [3] 0.609 | duvelisib -0.155 | gandotinib 0.372 | tozasertib 0.078 | [4] 0.045 | doramapimod 0.3 | ispinesib 0.357 | bafetinib 0.428 | [5] -0.059 | nilotinib 0.125 | [6] 0.213 | dasatinib 0.283 | [7] 0.161 | [8] -0.471 | [9] -0.252 | tipifarnib 0.241 | mubritinib -0.207

MAGED2 (UniProt Q9UNF1)
inactive: [1] 0.049 | crizotinib -0.078 | [2] -0.02 | [3] 0.091 | duvelisib 0.005 | gandotinib -0.074 | tozasertib -0.035 | [4] -0.015 | doramapimod 0.123 | ispinesib -0.151 | bafetinib -0.005 | [5] -0.103 | nilotinib -0.075 | [6] 0.106 | dasatinib -0.02 | [7] -0.037 | [8] -0.033 | [9] -0.043 | tipifarnib 0.032 | mubritinib 0.013

MAPK3 (UniProt P27361)
inactive: [1] -0.064 | crizotinib -0.008 | [2] 0.013 | [3] -0.119 | duvelisib -0.01 | gandotinib -0.024 | tozasertib 0.012 | [4] -0.048 | doramapimod -0.063 | ispinesib 0.03 | bafetinib 0.055 | [5] 0.114 | nilotinib -0.006 | [6] 0.068 | dasatinib 0.033 | [7] 0.02 | [8] 0.019 | [9] -0.008 | tipifarnib -0.119 | mubritinib -0.011

MAGEB1 (UniProt P43366)
inactive: [1] -0.095 | crizotinib -0.037 | [2] -0.406 | [3] 0.435 | duvelisib -0.228 | gandotinib 0.127 | tozasertib 0.068 | [4] 0.056 | doramapimod 0.207 | ispinesib -0.231 | bafetinib 0.185 | [5] 0.132 | nilotinib -0.043 | [6] -0.042 | dasatinib 0.085 | [7] -0.017 | [8] -0.244 | [9] -0.183 | tipifarnib 0.098 | mubritinib -0.247

LYSMD2 (UniProt Q8IV50)
inactive: [1] -0.051 | crizotinib 0.063 | [2] 0.011 | [3] 0.018 | duvelisib 0.066 | gandotinib 0.048 | tozasertib 0.019 | [4] -0.009 | doramapimod -0.036 | ispinesib -0.004 | bafetinib -0.045 | [5] -0.012 | nilotinib 0.005 | [6] -0.016 | dasatinib 0.008 | [7] 0.013 | [8] -0.008 | [9] -0.027 | tipifarnib 0.038 | mubritinib 0.018

Pulled one by one from the entries so far, 2 records:
LRSAM1 (UniProt Q6UWE0)
inactive: [1] 0.055 | crizotinib -0.012 | [2] 0.077 | [3] -0.04 | duvelisib 0.023 | gandotinib -0.045 | tozasertib 0 | [4] 0.049 | doramapimod 0.06 | ispinesib -0.017 | bafetinib -0.036 | [5] 0.023 | nilotinib -0.011 | [6] -0.073 | dasatinib -0.026 | [7] 0.029 | [8] 0.055 | [9] -0.028 | tipifarnib -0.001 | mubritinib 0.072

MACROD1 (UniProt Q9BQ69)
inactive: [1] 0.049 | crizotinib 0.133 | [2] 0.222 | [3] -0.013 | duvelisib -0.005 | gandotinib -0.182 | tozasertib 0.114 | [4] 0.092 | doramapimod -0.001 | ispinesib 0.065 | bafetinib -0.086 | [5] 0.028 | nilotinib -0.046 | [6] -0.102 | dasatinib -0.014 | [7] 0.037 | [8] 0.057 | [9] -0.05 | tipifarnib -0.096 | mubritinib 0.158

Remaining list, next part.

LSM3 (UniProt P62310)
inactive: [1] -0.071 | crizotinib 0.137 | [2] 0.077 | [3] -0.12 | duvelisib -0.009 | gandotinib 0.132 | tozasertib -0.002 | [4] -0.121 | doramapimod 0 | ispinesib 0.183 | bafetinib -0.012 | [5] 0 | nilotinib 0.053 | [6] -0.054 | dasatinib 0.05 | [7] -0.043 | [8] 0.02 | [9] 0.024 | tipifarnib -0.053 | mubritinib 0.024

LYPLA1 (UniProt O75608)
inactive: [1] -0.015 | crizotinib 0.084 | [2] 0.265 | [3] -0.129 | duvelisib 0.124 | gandotinib -0.023 | tozasertib 0.028 | [4] -0.029 | doramapimod 0.023 | ispinesib 0.104 | bafetinib -0.012 | [5] -0.013 | nilotinib 0 | [6] 0.014 | dasatinib 0.058 | [7] -0.015 | [8] 0.128 | [9] 0.154 | tipifarnib -0.076 | mubritinib 0.009
